{"source": "patent US6825194B2", "about": "“Hexacyclic compounds” (Chugai Seiyaku Kabushiki Kaisha, priority 2001, dated 2004)", "origin": "cited, not measured here", "conditions": "cited from earlier work"}
{"compound": "CC[C@@]1(O)C(=O)OCc2c1cc1n(c2=O)Cc2cc3ccccc3nc2-1", "note": "[camptothecin, 4(S)-ethyl-4-hydroxy-1H-pyrano[3′,4′:6,7]indolizino[1,2-b]quinoline-3,14(4H,12H)-dione]", "values": [{"measurement": "solubility in water", "result": "poorly soluble in water"}]}
